The values that follow come from publication PMC2810291, “Identification and characterization of endonuclein binding proteins: evidence of modulatory effects on signal transduction and chaperone activity” (BMC Biochemistry, 2009).

By UniProt entry, the sequences of proteins in these tests, tags left out. Residues count along the entry.
UniProt G3I8R9, residues 19-654: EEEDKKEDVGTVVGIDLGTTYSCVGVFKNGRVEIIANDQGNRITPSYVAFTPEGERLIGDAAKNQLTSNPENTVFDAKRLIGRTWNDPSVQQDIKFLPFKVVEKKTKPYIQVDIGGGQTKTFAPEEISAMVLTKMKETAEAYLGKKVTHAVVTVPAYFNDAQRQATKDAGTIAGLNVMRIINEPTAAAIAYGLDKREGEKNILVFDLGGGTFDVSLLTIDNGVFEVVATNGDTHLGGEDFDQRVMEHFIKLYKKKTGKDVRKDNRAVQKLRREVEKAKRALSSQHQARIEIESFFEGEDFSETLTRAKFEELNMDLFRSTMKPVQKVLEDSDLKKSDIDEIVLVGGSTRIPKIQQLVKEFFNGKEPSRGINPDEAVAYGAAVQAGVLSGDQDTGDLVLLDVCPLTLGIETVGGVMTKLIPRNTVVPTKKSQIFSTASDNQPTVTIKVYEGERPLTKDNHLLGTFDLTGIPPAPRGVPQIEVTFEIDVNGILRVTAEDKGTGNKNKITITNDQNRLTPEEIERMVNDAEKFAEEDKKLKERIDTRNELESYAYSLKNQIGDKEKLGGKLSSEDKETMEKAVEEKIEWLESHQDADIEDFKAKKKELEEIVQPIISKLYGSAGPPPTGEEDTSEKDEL

These are yes or no findings as the source states them, for the method shown. Some binding calls cover weakened binding; strength is not graded here.

This test concerns the target T1, recombinant endonuclein (human, UniProt Q13610 2-501).
T1 construct: human endonuclein, coding region Asn2-Ser501 of the 2309.2 cDNA, in the vector pT7-PL; also called IEF SSP 9502; PWP1 (yeast homologue's name)
Briefly: SPR; BIAcore 2000; endonuclein amine-coupled to a CM5 chip (3302 RU); analytes at 1 μM or 5 μM in 10 mM Hepes, 150 mM NaCl, 5 mM CaCl2, 1 mM EGTA, pH 7.4, 0.005% P20; control flow channel subtracted; both purified.

On to “recombinant hamster BiP/Grp78 (from UniProt G3I8R9 19-654)”, for which the binding result was “binds”.
